Experimental data as given in paper PMC7022552, “Structural and Functional Analyses of Human ChaC2 in Glutathione Metabolism” (Biomolecules, 2019).
Results are given in words; binding and its absence hold for the method and conditions named.

Chains of the proteins cited; added tags and fusions are not shown. Lines headed by an entry give the natural chain unless they say otherwise; changes in a name come on top.
UniProt Q8WUX2: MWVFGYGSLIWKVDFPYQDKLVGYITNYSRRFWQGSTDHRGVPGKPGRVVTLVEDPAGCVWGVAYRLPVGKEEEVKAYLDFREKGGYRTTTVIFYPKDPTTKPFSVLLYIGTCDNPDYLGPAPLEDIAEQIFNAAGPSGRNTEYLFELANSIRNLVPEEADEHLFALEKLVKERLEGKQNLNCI

Legend:
[1] = biological target: human ChaC2 E83Q (human) (UniProt Q8WUX2); assay: crystal structure; ChaC2 E74Q and ChaC2 E83Q crystals, 3 M sodium acetate trihydrate pH 7.0, improved with 10 mM GSH or 5-L-oxoproline; three molecules (A, B, C) in the asymmetric unit; both purified
[2] = biological target: human ChaC2 E83Q (human) (UniProt Q8WUX2); assay: native gel or EMSA; native-PAGE of the main peak fractions of the size-exclusion chromatography; both purified
[3] = biological target: human ChaC2 E83Q (human) (UniProt Q8WUX2); assay: SEC; HiLoad 16/600 Superdex 75 pg, 20 mM Tris-HCl pH 7.1, 150 mM NaCl, 5 mM DTT, 2% glycerol, 1 mL/min, calibrated with molecular weight standards; both purified
[4] = biological target: human ChaC2 E74Q (human) (UniProt Q8WUX2); assay: crystal structure; ChaC2 E74Q and ChaC2 E83Q crystals, 3 M sodium acetate trihydrate pH 7.0, improved with 10 mM GSH or 5-L-oxoproline; three molecules (A, B, C) in the asymmetric unit; both purified
[5] = biological target: human ChaC2 E74Q (human) (UniProt Q8WUX2); assay: native gel or EMSA; native-PAGE of the main peak fractions of the size-exclusion chromatography; both purified
[6] = biological target: human ChaC2 E74Q (human) (UniProt Q8WUX2); assay: SEC; HiLoad 16/600 Superdex 75 pg, 20 mM Tris-HCl pH 7.1, 150 mM NaCl, 5 mM DTT, 2% glycerol, 1 mL/min, calibrated with molecular weight standards; both purified

Measured: binding

human ChaC2 E83Q (from UniProt Q8WUX2 1-184) (enzyme)
no binding: [1] | [2] | [3]

human ChaC2 E74Q (from UniProt Q8WUX2 1-184) (enzyme)
no binding: [4] | [5] | [6]
